HELM strings list residues between dots; [ac] is acetyl, [am] amide, other brackets name non-standard units.
Experiment: peptide synthesis
Conditions: conjugation step

PEPTIDE1{[Bmt-JP1-138].[Abu].[Sar].[MeLeu].V.[MeLeu].A.[dA].[MeLeu].[MeLeu].[MeVal]}$PEPTIDE1,PEPTIDE1,1:R1-11:R2$$$V2.0
conjugation yield: 9.3%
